{"source": "paper PMC5107993", "about": "“Glutathione-conjugating and membrane-remodeling activity of GDAP1 relies on amphipathic C-terminal domain” (Scientific Reports, 2016)", "binders": {"B1": {"name": "mouse Gdap1 T288X (truncation lacking the TMD and HD1) (domain or fragment, UniProt O88741 1-287)", "chain": "MARRQDEARAGVPLRVEGPPDKEVHLILYHWTHSFSSQKVRLVIAEKALKCEEHDVSLPLSEHNEPWFMRLNSAGEVPVLVHGENIICEATQIIDYLEQTFLDERTPRLMPDEGSMYYPRVQHYRELLDSLPMDAYTHGCILHPELTVDSMIPAYATTRIRSQIGNTESELKKLAEENPDLQEAYIAKQKRLKSKLLDHDNVKYLKKILDELEKVLDQVETELQRRNEETPEEGNQPWLCGESFTLADVSLAVTLHRLKFLGFARRNWGHGKRPNLETYYERVLKRK"}}, "target": "T1, human GDAP1 T288X (truncation lacking the TMD and HD1) (human) (UniProt Q8TB36)", "T1 sequence": "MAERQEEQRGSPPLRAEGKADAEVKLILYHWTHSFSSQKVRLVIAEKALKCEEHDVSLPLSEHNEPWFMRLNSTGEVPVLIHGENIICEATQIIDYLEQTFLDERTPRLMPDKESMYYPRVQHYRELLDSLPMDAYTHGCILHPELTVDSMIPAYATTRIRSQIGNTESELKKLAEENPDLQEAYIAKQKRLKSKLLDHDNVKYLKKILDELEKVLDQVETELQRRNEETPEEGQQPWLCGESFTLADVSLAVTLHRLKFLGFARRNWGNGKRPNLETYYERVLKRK", "test": "co-IP; human and mouse forms co-expressed in HEK-293T; IP with human-specific anti-GDAP1 serum on Protein A-Sepharose, 2 h; lysis buffer 50 mM Tris pH 7.5, 150 mM NaCl, 1 mM EDTA, 1% Triton X-100; immunoblot for the mouse form", "note": "These are yes or no findings as the source states them, for the method shown. Binding seen in cells or lysates may run through a third protein. Some entries that bind do so weakly or less than the wild type.", "data": [{"binder": "B1", "values": [{"measurement": "binding", "value": "binds"}]}]}
